Reference: the supplement of paper PMC10849652
The other results are listed elsewhere or left out.

The chains behind the UniProt entries cited, without tags or fusion partners. Where a name states a change or a piece, a line headed by the entry shows the natural chain unless it says otherwise.
UniProt Q15542, whole entry, looked up: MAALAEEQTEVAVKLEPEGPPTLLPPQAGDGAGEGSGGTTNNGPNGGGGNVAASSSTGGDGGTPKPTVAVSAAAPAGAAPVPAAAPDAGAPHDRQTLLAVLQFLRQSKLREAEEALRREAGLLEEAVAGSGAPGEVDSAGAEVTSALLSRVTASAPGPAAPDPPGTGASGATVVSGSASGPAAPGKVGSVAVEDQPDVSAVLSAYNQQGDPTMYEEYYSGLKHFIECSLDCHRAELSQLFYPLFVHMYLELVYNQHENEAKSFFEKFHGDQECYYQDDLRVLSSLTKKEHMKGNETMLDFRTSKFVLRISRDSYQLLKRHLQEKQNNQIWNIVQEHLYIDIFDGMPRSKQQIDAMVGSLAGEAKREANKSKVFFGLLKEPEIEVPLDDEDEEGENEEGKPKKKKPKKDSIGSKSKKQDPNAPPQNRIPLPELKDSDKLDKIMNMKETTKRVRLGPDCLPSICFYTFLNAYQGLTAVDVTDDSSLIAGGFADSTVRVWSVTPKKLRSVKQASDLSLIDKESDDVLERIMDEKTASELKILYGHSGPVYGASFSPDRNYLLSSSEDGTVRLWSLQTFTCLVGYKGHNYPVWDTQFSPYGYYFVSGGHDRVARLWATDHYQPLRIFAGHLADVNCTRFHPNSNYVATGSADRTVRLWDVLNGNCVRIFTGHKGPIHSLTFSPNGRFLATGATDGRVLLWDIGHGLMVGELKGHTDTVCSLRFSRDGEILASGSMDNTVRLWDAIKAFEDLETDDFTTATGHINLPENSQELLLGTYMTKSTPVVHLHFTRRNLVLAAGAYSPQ
UniProt P55854, whole entry, looked up: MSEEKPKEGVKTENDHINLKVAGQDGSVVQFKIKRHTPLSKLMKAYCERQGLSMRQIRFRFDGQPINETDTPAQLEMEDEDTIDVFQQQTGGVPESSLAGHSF
UniProt Q16514: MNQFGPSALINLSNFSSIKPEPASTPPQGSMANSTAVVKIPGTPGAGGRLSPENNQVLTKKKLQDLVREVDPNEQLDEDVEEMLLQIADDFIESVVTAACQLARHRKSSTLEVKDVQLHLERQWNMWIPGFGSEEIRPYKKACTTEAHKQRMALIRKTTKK
UniProt Q13033: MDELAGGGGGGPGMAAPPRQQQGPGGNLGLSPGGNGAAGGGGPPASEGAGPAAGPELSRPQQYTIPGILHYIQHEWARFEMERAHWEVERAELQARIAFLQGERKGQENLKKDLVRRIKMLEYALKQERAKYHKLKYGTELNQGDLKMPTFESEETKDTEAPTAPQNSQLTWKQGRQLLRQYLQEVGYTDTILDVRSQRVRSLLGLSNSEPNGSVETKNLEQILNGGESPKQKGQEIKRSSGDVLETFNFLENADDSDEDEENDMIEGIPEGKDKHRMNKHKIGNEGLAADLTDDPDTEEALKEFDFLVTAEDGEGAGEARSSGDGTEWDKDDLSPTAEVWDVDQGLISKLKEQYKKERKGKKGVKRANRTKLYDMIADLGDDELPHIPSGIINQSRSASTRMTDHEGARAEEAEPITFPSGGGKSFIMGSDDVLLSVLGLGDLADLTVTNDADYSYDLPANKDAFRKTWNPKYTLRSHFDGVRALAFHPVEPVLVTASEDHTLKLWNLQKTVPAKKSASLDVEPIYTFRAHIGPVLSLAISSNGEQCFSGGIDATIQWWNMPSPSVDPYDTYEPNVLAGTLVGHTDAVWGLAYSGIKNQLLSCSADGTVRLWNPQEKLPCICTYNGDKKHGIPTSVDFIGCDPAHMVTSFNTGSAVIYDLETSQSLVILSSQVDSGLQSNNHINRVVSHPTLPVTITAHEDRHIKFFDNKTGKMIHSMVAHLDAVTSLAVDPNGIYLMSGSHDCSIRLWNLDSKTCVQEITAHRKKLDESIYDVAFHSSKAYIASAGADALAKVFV
UniProt P53597: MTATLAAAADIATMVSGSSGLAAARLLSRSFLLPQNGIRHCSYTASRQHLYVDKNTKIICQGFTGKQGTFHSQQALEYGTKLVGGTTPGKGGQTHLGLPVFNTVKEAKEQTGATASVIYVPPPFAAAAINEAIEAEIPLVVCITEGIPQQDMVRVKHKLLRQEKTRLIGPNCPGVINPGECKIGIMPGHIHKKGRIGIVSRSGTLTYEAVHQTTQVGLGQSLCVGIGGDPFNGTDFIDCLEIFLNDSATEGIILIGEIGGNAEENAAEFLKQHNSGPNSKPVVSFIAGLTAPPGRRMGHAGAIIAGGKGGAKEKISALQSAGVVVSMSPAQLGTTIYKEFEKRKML
UniProt P21675, whole entry, looked up: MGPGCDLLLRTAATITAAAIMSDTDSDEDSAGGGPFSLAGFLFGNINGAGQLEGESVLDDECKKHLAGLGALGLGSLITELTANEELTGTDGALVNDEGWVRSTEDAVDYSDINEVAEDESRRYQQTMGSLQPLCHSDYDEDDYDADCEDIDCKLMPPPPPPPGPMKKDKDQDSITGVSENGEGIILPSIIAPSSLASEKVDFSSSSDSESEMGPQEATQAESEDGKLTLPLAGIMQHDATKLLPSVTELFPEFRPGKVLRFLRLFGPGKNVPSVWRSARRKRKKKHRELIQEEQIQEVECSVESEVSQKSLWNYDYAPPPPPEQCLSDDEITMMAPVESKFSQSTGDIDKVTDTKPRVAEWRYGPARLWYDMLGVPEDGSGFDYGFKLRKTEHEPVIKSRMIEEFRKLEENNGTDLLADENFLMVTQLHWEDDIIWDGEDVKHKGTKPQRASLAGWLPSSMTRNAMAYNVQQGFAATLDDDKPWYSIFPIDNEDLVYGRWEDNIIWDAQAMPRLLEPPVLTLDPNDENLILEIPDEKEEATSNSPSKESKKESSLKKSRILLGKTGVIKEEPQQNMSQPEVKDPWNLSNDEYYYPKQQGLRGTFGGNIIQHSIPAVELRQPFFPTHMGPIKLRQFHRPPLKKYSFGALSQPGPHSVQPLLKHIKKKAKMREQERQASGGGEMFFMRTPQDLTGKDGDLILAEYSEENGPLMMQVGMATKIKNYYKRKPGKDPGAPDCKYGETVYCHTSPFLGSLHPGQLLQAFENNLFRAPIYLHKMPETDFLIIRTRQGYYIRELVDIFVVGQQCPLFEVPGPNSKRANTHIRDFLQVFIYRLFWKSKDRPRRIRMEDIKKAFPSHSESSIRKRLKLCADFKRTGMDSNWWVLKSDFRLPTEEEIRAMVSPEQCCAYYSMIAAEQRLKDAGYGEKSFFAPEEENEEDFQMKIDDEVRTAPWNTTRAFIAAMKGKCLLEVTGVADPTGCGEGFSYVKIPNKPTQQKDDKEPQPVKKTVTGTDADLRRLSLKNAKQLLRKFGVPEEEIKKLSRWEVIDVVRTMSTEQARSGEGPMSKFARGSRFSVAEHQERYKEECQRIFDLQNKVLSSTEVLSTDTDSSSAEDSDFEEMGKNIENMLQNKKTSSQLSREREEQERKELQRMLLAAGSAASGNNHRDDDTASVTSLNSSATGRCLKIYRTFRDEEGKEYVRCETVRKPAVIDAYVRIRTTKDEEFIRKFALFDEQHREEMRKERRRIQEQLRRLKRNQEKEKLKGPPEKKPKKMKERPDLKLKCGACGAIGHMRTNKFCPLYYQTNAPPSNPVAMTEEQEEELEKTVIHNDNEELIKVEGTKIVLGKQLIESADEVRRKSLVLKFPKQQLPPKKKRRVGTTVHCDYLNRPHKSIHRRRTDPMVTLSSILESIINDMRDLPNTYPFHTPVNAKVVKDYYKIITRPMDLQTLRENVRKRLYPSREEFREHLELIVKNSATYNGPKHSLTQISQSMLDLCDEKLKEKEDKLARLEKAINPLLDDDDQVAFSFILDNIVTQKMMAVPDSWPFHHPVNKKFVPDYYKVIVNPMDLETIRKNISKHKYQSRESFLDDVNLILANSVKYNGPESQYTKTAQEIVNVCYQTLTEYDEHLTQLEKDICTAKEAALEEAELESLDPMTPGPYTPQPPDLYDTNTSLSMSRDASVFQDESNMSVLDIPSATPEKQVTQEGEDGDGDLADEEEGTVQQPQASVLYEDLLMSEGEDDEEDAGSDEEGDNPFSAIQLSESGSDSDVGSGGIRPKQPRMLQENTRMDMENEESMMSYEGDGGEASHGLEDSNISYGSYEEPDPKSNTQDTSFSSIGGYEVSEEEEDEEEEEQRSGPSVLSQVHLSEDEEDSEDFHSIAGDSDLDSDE

Experiments:
Assay in all cases: log2 fold change, soluble protein after heating vs DMSO (PISA); higher = thermal stabilisation; K562 lysate, 10 uM; active = over 0.2 and 3.5 SD of the protein, either way, in both replicates (recomputed)
[1] = compound: C#Cc1cccc(Nc2ncnc3cc(OCCOC)c(OCCOC)cc23)c1 [erlotinib]
Outline: (§1)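 Pellets of K562 cells were dounce-homogenised in PBS pH 7.4 with 1 mM MgCl2, and the crude extract was held at 1 mg/mL protein for a 30 min treatment with 10 μM compound. Aliquots were heated for 3 min over 48°C-58°C and pooled before NP-40 was added to 0.5% at 4°C. The supernatant from 21,000xg for 90 min was quantified by TMTpro 16plex LC-MS/MS with channel sums equalised. Values are reported from duplicates as log-two fold change in thermal stability relative to solvent controls.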

[2] = compound: C/C(=N\NC(=O)C1=CC(=CC=C1)S(=O)(=O)N2CCOCC2)/C3=C(C=CC(=C3)Cl)O
Outline: as §1

[3] = compound: C1=CC(=CC=C1C2=NC3=C(N2)C=C(C=C3)C(=O)N)OC4=CC=C(C=C4)Cl
Outline: as §1

[4] = compound: C1=CC2=C(C=CC(=C2)/C=C\3/C(=O)NC(=NCC4=CC=CS4)S3)N=C1
Outline: as §1

[5] = compound: C1=CC2=NC=CN=C2C=C1/C=C/3\C(=O)NC(=O)S3
Outline: as §1

[6] = compound: C1=CC=C(C=C1)C2=NC(=C(N2)C3=CC=NC=C3)C4=CC(=C(C=C4)Cl)O
Outline: as §1

[7] = compound: C1CCN(C1)C(=O)NC2=CC=CC(=C2)NC3=NC=C(C(=N3)NCCC4=CN=CN4)Br
Outline: as §1

[8] = compound: C1CN(CCC1(CC2=CC=C(C=C2)Cl)N)C3=NC=NC4=C3C=CN4
Outline: as §1

[9] = compound: C1COCCN1CCN2C3=CC=CC=C3N=C2NC(=O)C4=CC(=CC=C4)[N+](=O)[O-] [IRAK-1-4 Inhibitor I]
Outline: as §1

[10] = compound: C=CC(=O)N1CCC[C@@H](n2nc(-c3ccc(Oc4ccccc4)cc3)c3c(N)ncnc32)C1 [ibrutinib]
Outline: as §1

[11] = compound: CC(=O)c1cnc2ccc(-c3cc(Cl)c(O)c(Cl)c3)nc2c1N[C@H]1CC[C@H](CN(C)C)CC1
Outline: as §1

[12] = compound: CC(C)(C)Cn1c(N)nc2ccc(-c3[nH]c(C(C)(C)C)nc3-c3ccc(F)cc3)nc21 [ralimetinib]
Outline: as §1

[13] = compound: CC(C)(O)CC(=O)NCCn1ccc2ncnc(Nc3ccc(Oc4cccc(C(F)(F)F)c4)c(Cl)c3)c21
Outline: as §1

[14] = compound: CC(C)C1=C2N=C(C=C(N2N=C1)NCC3=CC=CC=C3)NCCCCCCN
Outline: as §1

[15] = compound: CC1=C(C(CC(=O)N1)C2=CC=C(C=C2)C(F)(F)F)C(=O)NC3=C(C=C4C(=C3)C=NN4)F
Outline: as §1

[16] = compound: CC1=C(C2=C(C=C1)C(=O)C3=CC=CC=C3N2CCCN)C
Outline: as §1

[17] = compound: CC1=C(C=C(C=C1)NC(=O)C2=CC(=CC=C2)C(C)(C)C#N)NC3=CC4=C(C=C3)N=CN(C4=O)C
Outline: as §1

[18] = compound: CC1=C(C=C(C=C1)NC(=O)C2=CC(=CC=C2)N(C)C)NC(=O)C3=CC=C(C=C3)O
Outline: as §1

[19] = compound: CC1=CC=C(C=C1)SC2=C3C=C(SC3=CN=C2)C(=O)N
Outline: as §1

[20] = compound: C1=CC=C2C(=C1)C3=NNC4=CC=CC(=C43)C2=O
Outline: as §1

Measured: log2 fold change

SYK (UniProt P43405)
inactive: [1] -0.004 | [2] -0.007 | [3] 0.017 | [4] 0.039 | [5] -0.033 | [6] 0.021 | [7] -0.013 | [8] -0.038 | [9] 0.053 | [10] -0.09 | [11] -0.041 | [12] -0.025 | [13] -0.103 | [14] 0.051 | [15] -0.055 | [16] -0.114 | [17] -0.001 | [18] 0.027 | [19] -0.065

TAF5 (UniProt Q15542)
inactive: [1] -0.078 | [2] 0.039 | [3] -0.137 | [4] -0.029 | [5] -0.079 | [6] -0.081 | [20] 0.029 | [9] 0.051 | [10] 0.049 | [11] 0.191 | [12] 0.154 | [13] 0.019 | [14] 0.022 | [16] 0.064 | [18] 0.117 | [19] 0.068

SUMO3 isoform 2 (UniProt P55854)
inactive: [1] 0 | [2] -0.002 | [3] -0.006 | [4] -0.027 | [5] -0.02 | [6] 0.038 | [20] -0.007 | [7] 0.104 | [8] 0.053 | [9] 0.014 | [10] 0.028 | [11] -0.014 | [12] -0.016 | [13] 0.024 | [14] 0.019 | [15] -0.009 | [16] 0.041 | [17] -0.007 | [18] 0.046 | [19] 0.031

TAF12 (UniProt Q16514)
inactive: [1] -0.07 | [2] 0.001 | [3] 0.019 | [4] -0.005 | [5] -0.063 | [6] 0.011 | [20] 0.006 | [7] -0.109 | [8] -0.026 | [9] -0.001 | [10] 0.083 | [11] -0.042 | [12] 0.006 | [13] -0.078 | [14] -0.035 | [15] -0.079 | [16] 0.024 | [17] 0.01 | [18] -0.018 | [19] -0.002

STRN3 (UniProt Q13033)
inactive: [1] -0.032 | [2] 0.018 | [3] 0.031 | [4] 0.011 | [5] 0.003 | [6] 0.004 | [20] 0.017 | [7] 0.02 | [8] -0.038 | [9] 0.012 | [10] 0.03 | [11] 0.019 | [12] -0.015 | [13] 0.012 | [14] -0.007 | [15] 0.071 | [16] -0.024 | [17] -0.005 | [18] 0.029 | [19] 0.033

SUCLG1 (UniProt P53597)
inactive: [1] 0.052 | [2] 0.022 | [3] 0.033 | [4] -0.005 | [5] 0.018 | [6] 0.051 | [20] -0.035 | [7] -0.017 | [8] -0.021 | [9] 0 | [10] 0.038 | [11] -0.016 | [12] 0.025 | [13] 0.015 | [14] 0.047 | [15] -0.048 | [16] -0.025 | [17] 0.004 | [18] 0.039 | [19] -0.017

TAF1 isoform 4 (UniProt P21675)
inactive: [1] 0.011 | [2] 0.083 | [3] -0.029 | [4] -0.055 | [6] 0.028 | [20] -0.011 | [7] 0.012 | [8] -0.024 | [9] -0.036 | [11] -0.008 | [12] 0.052 | [13] 0.078 | [14] -0.019 | [15] -0.157 | [16] -0.039 | [17] 0.014 | [18] 0.004 | [19] 0.122

STRN3 isoform 2 (UniProt Q13033)
inactive: [5] 0.015 | [10] -0.007 | [16] 0.028
